Experimental data as given in paper PMC11754051.

Sequences of proteins named here, by UniProt entry; tags and fusion partners are left off.
UniProt P03466: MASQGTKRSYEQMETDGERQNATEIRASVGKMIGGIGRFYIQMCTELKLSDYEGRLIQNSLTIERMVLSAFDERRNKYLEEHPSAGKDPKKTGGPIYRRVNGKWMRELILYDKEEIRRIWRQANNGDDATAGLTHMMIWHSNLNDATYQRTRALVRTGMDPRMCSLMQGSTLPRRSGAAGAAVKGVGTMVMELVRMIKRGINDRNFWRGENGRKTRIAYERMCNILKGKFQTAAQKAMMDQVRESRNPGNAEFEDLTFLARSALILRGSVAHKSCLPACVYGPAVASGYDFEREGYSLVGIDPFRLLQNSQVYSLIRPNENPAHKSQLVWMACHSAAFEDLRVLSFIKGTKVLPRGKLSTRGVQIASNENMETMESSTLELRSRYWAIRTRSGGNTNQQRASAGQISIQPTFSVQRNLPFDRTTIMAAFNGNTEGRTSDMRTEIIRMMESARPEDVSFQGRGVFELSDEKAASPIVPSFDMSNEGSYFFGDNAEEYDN
UniProt P41155: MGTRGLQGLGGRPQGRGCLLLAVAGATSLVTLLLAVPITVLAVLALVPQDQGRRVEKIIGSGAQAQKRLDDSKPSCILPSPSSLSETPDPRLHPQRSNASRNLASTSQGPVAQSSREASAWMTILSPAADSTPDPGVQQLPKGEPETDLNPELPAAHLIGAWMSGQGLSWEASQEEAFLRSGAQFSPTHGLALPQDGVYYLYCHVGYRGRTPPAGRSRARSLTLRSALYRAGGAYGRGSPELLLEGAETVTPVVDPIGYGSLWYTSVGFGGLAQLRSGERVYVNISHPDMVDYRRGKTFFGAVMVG

Target: T1, Calcium/calmodulin-dependent serine protein kinase (CASK) (mouse (endogenous in primary GM-macrophages)) (UniProt O70589)
T1 sequence: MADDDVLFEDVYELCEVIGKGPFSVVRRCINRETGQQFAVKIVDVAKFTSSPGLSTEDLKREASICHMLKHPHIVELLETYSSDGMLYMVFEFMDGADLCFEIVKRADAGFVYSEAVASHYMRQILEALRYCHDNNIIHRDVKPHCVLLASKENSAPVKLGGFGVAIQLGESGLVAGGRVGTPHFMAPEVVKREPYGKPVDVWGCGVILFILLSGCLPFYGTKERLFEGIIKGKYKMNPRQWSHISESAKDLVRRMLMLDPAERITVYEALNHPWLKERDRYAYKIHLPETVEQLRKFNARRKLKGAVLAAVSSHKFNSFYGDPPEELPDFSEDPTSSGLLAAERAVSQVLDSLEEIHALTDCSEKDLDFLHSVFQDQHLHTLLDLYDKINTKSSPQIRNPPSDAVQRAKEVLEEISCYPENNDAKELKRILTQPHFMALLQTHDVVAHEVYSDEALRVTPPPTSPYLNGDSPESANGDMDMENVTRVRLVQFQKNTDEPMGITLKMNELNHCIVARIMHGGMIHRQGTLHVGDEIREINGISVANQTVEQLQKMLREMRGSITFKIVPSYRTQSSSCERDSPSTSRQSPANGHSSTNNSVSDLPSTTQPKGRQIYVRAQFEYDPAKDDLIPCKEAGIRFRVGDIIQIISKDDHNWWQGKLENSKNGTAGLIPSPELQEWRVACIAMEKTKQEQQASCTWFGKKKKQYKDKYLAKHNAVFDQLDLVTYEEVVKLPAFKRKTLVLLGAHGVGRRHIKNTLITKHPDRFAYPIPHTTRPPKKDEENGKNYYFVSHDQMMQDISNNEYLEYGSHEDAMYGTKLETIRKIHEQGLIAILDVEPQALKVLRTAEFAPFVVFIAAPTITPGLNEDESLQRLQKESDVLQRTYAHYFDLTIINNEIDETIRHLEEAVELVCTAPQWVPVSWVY
Test: affinity purification with mass spectrometry

Substance | binding
IAV nucleoprotein (NP) (from UniProt P03466 1-498) | binds
Lymphotoxin-beta (from UniProt P41155 1-306) | binds

No constants are given. Whether binding was seen depends on the method and setting. Binding seen in cells or lysates may run through a third protein. Here binding means that the protein was enriched with, or labelled near, the bait; the list need not be complete.
